Assay results from patent US20130084614A1, “METHODS OF REMOVING INHIBITORS FROM CELLULOSIC BIOMASS AND PRODUCING ALCOHOLS” (3M INNOVATIVE PROPERTIES COMPANY, priority 2010, published 2013).

Key:
[1] = Example 4: multilayer cross-flow MSE of C5 fraction; conditions: 8 hour extraction
[2] = Example 3: single layer flow-through membrane solvent extraction (MSE) of C5 fraction; conditions: 24 hour extraction

Row | Structure (SMILES) | g/L in aqueous final ([1]; solvent 1-decanol) | g/L in solvent final ([1]; solvent 1-decanol) | g/L in aqueous final ([1]; solvent 2-octanol) | g/L in solvent final ([1]; solvent 2-octanol) | g/L in aqueous final ([2]; solvent 1-decanol) | g/L in extractant final ([2]; solvent 1-decanol) | g/L in aqueous final ([2]; solvent dibutyl maleate) | g/L in extractant final ([2]; solvent dibutyl maleate)
1 | CC(=O)O [acetic acid] | 2.86 g/L | 0.73 g/L | 2.13 g/L | 0.52 g/L | 5.14 g/L | 1.01 g/L | 6.83 g/L | 0.72 g/L
2 | O=Cc1ccc(CO)o1 [5-hydroxymethylfurfural] | 0.55 g/L | 0.21 g/L | 0.44 g/L | 0.13 g/L | 1.07 g/L | 0.25 g/L | 0.980 g/L | 0.50 g/L
3 | O=Cc1ccco1 [furfural] | 0.30 g/L | 0.52 g/L | 0.19 g/L | 0.27 g/L | 0.300 g/L | 0.43 g/L | 0.160 g/L | 0.90 g/L
4 | CC(O)C(=O)O (centres unmarked) [lactic acid] | 1.35 g/L | 0.04 g/L | 1.44 g/L | 0.02 g/L | 4.06 g/L | (0.00/0.00) g/L | 4.31 g/L | (0.00/0.00) g/L
5 | COc1cc(C=O)ccc1O [vanillin] | 0.12 g/L | 0.42 g/L |  |  | 0.001 g/L | 0.06 g/L | 0.005 g/L | 0.09 g/L
